# The supplement of paper PMC10849652
# Chains of the proteins cited; added tags and fusions are not shown. Lines headed by an entry give the natural chain unless they say otherwise; changes in a name come on top.
# UniProt Q7KYR7: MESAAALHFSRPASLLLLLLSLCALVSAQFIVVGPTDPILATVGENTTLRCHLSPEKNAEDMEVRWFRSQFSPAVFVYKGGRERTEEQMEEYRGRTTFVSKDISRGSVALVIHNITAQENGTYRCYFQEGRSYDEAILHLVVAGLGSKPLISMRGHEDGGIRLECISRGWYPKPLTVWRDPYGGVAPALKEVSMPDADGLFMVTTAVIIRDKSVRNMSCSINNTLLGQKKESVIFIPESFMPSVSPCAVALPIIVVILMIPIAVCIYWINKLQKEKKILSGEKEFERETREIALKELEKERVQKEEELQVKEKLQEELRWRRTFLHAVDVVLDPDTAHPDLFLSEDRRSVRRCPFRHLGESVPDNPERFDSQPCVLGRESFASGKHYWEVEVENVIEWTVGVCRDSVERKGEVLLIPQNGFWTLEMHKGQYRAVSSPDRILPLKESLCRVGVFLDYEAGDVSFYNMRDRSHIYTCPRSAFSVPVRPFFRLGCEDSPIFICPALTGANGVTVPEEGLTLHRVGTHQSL
# UniProt O15155: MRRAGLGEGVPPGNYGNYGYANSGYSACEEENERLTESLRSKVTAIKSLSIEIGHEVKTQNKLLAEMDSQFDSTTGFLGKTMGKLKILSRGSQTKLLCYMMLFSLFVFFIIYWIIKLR
# UniProt P11274: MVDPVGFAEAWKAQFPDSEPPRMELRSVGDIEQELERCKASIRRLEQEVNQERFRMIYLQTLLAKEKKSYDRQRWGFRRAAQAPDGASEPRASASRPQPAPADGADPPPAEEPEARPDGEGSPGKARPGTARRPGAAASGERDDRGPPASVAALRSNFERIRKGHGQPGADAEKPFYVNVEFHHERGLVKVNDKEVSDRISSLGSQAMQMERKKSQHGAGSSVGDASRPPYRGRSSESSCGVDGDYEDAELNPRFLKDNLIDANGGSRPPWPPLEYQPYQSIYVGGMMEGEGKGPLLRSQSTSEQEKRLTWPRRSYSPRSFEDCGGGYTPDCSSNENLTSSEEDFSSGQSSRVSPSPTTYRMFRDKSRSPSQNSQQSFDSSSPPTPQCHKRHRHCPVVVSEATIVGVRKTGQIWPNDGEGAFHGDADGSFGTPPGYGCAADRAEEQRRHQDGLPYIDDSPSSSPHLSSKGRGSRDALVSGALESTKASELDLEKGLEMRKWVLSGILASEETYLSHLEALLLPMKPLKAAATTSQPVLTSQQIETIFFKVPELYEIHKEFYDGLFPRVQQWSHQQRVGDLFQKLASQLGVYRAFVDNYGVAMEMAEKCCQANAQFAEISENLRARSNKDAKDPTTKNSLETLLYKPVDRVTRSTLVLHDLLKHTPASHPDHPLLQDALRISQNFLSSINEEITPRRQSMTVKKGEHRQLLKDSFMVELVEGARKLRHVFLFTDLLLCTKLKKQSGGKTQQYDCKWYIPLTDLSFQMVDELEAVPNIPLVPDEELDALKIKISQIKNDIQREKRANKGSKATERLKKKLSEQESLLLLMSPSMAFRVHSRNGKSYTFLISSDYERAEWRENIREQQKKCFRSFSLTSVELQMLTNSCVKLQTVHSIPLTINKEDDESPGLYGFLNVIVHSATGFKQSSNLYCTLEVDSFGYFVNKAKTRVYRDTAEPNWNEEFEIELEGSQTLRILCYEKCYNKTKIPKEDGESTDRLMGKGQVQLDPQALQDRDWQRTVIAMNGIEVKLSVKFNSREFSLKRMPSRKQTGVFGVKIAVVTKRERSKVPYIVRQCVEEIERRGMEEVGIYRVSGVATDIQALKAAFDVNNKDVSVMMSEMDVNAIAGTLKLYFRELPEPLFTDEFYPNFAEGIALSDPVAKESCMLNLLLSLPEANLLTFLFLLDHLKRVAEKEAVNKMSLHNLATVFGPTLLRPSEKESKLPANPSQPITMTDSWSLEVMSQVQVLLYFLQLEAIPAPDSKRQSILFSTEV
# UniProt Q8WUW1: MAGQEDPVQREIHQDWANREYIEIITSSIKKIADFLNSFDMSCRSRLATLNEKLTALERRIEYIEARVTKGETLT
# UniProt Q07812, whole entry, looked up: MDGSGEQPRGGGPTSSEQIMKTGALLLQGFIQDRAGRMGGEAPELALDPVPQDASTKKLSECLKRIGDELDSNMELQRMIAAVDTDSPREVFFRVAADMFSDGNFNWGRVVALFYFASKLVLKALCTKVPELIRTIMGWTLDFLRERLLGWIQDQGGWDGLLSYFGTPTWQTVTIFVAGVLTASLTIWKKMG
# UniProt Q6W2J9: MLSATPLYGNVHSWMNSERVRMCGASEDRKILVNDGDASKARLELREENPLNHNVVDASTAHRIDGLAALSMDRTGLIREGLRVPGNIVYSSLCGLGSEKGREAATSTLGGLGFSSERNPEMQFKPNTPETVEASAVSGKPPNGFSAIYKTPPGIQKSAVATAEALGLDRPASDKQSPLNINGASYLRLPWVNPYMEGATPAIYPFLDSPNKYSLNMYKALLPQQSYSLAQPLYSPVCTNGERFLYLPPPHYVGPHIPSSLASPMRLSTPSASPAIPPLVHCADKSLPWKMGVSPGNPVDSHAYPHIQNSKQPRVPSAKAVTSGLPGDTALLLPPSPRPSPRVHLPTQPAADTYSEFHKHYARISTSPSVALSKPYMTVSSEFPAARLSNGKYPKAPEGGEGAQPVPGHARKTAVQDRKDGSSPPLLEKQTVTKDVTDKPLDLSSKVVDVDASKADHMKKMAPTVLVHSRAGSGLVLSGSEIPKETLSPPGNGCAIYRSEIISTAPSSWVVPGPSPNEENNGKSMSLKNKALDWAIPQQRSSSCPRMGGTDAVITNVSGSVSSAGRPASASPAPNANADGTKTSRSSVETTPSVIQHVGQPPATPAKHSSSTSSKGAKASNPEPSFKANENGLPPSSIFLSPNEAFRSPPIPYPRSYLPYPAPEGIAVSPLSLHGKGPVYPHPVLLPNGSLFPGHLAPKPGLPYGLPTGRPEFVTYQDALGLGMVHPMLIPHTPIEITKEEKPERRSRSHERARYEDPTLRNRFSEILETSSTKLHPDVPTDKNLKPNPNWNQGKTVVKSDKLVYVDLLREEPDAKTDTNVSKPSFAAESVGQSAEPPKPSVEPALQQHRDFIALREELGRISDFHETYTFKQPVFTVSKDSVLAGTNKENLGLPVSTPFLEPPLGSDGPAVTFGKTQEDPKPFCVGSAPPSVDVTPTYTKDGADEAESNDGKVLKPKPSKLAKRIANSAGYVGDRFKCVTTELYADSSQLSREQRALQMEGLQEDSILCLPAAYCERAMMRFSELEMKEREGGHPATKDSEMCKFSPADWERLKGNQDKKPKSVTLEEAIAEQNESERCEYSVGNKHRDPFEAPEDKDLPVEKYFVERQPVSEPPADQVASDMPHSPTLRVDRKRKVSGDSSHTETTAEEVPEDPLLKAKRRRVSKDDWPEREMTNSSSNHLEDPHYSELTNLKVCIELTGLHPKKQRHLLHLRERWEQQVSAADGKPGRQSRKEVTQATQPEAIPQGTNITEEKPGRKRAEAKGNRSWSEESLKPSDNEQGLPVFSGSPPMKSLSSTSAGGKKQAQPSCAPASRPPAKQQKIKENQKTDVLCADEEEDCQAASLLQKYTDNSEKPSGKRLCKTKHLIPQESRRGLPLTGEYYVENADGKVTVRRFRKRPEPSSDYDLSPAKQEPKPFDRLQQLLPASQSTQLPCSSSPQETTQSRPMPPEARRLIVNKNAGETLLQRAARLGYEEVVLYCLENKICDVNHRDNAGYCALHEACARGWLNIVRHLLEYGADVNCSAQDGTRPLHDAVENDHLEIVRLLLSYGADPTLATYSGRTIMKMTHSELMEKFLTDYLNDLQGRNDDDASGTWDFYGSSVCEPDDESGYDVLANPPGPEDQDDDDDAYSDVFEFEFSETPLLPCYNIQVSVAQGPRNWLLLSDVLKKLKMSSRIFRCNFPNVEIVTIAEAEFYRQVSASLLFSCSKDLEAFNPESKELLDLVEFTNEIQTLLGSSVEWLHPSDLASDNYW
# UniProt Q9BQE9, whole entry, looked up: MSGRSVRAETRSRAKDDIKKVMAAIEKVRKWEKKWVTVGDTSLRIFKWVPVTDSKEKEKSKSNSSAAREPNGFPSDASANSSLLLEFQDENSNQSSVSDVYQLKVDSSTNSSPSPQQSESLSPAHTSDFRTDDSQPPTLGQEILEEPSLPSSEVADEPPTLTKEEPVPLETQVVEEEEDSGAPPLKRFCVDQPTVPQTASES
# UniProt O75531: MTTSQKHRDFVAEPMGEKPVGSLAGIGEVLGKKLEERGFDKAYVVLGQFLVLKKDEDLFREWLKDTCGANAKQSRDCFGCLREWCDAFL
# UniProt Q07817, whole entry, looked up: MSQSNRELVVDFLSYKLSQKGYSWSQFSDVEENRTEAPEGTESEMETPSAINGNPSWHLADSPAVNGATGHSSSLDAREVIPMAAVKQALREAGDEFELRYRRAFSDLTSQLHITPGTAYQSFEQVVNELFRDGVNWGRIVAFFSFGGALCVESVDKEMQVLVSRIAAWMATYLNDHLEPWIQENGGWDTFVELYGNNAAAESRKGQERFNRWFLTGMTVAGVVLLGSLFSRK
# UniProt P46379: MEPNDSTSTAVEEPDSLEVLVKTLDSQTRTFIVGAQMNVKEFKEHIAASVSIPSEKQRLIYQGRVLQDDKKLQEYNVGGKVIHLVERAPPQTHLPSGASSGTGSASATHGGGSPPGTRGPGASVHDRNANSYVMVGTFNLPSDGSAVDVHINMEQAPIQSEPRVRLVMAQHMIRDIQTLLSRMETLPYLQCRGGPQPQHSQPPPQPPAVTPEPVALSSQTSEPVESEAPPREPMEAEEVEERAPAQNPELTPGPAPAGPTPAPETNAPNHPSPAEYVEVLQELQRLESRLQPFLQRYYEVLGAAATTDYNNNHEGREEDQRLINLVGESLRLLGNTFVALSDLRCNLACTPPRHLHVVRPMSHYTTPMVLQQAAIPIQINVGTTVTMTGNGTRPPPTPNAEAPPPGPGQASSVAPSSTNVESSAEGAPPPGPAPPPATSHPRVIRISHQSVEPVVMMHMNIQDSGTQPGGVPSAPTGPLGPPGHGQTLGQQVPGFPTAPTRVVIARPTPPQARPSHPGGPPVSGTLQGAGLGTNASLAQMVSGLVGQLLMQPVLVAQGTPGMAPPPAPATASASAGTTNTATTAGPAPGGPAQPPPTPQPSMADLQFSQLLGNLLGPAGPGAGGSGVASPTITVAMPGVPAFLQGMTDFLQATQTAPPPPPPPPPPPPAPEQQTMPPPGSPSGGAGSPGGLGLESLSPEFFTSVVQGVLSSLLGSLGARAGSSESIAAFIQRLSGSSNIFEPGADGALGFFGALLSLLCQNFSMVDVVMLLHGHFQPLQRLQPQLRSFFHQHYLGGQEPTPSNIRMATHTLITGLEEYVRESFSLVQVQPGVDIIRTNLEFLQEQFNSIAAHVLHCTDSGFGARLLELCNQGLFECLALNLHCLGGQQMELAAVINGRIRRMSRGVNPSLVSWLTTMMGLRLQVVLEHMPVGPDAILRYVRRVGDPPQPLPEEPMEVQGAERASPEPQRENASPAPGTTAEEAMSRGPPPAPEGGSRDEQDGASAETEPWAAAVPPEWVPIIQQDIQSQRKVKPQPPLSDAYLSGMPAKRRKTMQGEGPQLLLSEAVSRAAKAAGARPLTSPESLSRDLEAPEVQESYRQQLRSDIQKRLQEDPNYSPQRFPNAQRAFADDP
# UniProt Q8TDN6: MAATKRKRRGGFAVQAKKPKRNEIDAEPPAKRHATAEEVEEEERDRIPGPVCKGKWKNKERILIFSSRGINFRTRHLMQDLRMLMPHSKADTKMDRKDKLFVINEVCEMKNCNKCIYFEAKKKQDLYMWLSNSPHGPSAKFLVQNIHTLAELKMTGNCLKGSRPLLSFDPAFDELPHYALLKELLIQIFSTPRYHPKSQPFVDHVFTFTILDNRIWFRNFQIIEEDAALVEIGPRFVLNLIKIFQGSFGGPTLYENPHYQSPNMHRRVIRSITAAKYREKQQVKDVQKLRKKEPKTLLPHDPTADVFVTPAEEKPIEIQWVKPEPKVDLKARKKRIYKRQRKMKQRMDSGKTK
# UniProt P21953: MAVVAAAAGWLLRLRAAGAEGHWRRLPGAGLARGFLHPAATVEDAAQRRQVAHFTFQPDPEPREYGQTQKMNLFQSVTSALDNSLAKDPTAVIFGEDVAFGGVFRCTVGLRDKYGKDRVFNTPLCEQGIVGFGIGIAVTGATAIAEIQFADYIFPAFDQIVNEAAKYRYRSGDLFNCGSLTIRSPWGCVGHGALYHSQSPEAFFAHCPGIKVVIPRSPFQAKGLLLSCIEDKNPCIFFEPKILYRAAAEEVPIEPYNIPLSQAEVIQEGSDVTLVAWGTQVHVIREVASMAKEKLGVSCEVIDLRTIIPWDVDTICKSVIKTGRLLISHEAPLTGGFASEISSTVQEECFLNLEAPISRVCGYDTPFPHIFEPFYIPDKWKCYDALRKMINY
# UniProt P55957: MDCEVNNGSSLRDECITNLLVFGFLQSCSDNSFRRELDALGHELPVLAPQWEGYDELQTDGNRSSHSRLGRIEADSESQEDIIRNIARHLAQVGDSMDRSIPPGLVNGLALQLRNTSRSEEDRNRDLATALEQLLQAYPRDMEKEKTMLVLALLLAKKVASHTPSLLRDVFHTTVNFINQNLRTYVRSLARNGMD
# This is one part of the list.
# Tests used:
# Experiment in all cases: log2 fold change, soluble protein after heating vs DMSO (PISA); higher = thermal stabilisation; K562 lysate, 10 uM; active = over 0.2 and 3.5 SD of the protein, either way, in both replicates (recomputed)
# [1] = compound: NCC(=O)Nc1ccc(-n2nc(C(F)(F)F)cc2-c2ccc3c(ccc4ccccc43)c2)cc1
# Procedure, shortened: (§1)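 Quantification was by TMTpro 16plex LC-MS/MS with equalised channel sums, applied to the supernatant after 21,000xg for 90 min. Samples were crude K562 extract at 1 mg/mL protein in PBS pH 7.4 with 1 mM MgCl2, treated with 10 μM compound for 30 min, heated for 3 min across 48°C-58°C, pooled and brought to 0.5% NP-40 at 4°C. Values are log-two fold changes in thermal stability relative to solvent controls, from duplicates.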
# vorinostat = compound: O=C(CCCCCCC(=O)Nc1ccccc1)NO [vorinostat]
# Procedure, shortened: as §1
# silmitasertib = compound: O=C(O)c1ccc2c(c1)nc(Nc1cccc(Cl)c1)c1ccncc12 [silmitasertib]
# Procedure, shortened: as §1
# [2] = compound: O=C1NC(=O)C(c2cnc3ccccn23)=C1c1cn2c3c(cc(F)cc13)CN(C(=O)N1CCCCC1)CC2
# Procedure, shortened: as §1
# entospletinib = compound: c1cn2cc(-c3ccc4cn[nH]c4c3)nc(Nc3ccc(N4CCOCC4)cc3)c2n1 [entospletinib]
# Procedure, shortened: as §1
Target,log2 fold change [1],log2 fold change (vorinostat),log2 fold change (silmitasertib),log2 fold change [2],log2 fold change (entospletinib)
BRCA2 (UniProt P51587),inactive: 0.061,inactive: -0.079,inactive: 0.224,inactive: 0.038,inactive: -0.01
BTK isoform 2 (UniProt Q06187),active: 0.439,active: -0.322,inactive: 0.066,inactive: 0.012,inactive: 0.3
BRD8 isoform 2 (UniProt Q9H0E9),inactive: -0.017,inactive: 0.005,inactive: 0.015,inactive: -0.017,inactive: 0.006
BTN2A1 (UniProt Q7KYR7),inactive: -0.051,inactive: 0.051,inactive: 0.015,inactive: 0.012,inactive: 0.072
BLOC1S4 (UniProt Q9NUP1),inactive: -0.023,inactive: 0.007,inactive: 0.015,inactive: 0.008,inactive: 0
BCL2L12 (UniProt Q9HB09),inactive: 0.031,inactive: -0.033,inactive: 0.1,inactive: -0.085,inactive: -0.129
BCL10 (UniProt O95999),inactive: 0,inactive: -0.02,inactive: 0.009,inactive: -0.02,inactive: 0.009
BET1 (UniProt O15155),inactive: 0.015,inactive: -0.042,inactive: -0.008,inactive: -0.01,inactive: 0.035
BCR (UniProt P11274),inactive: 0.012,active: -0.267,inactive: 0.005,inactive: 0.001,inactive: -0.009
BCL2L13 (UniProt Q9BXK5),inactive: -0.016,inactive: 0.1,inactive: 0.012,inactive: -0.013,inactive: 0.019
BICD2 isoform 2 (UniProt Q8TD16),inactive: -0.002,inactive: 0.024,inactive: 0.011,inactive: -0.024,inactive: -0.049
BAG3 (UniProt O95817),inactive: 0.005,inactive: 0.116,inactive: 0.013,inactive: 0.014,inactive: 0.01
BRK1 isoform 2 (UniProt Q8WUW1),inactive: -0.025,inactive: 0.021,inactive: -0.032,inactive: 0.038,inactive: 0.025
BAX isoform 2 (UniProt Q07812),inactive: 0.047,inactive: 0.016,inactive: -0.024,inactive: -0.032,inactive: 0.037
BCOR (UniProt Q6W2J9),inactive: -0.082,inactive: -0.119,inactive: 0,inactive: 0.081,inactive: -0.003
BPNT1 (UniProt O95861),inactive: -0.007,inactive: 0.037,inactive: -0.005,inactive: -0.02,inactive: 0.038
BRD3 (UniProt Q15059),inactive: 0.052,inactive: -0.117,inactive: -0.146,inactive: 0.021,inactive: -0.018
BAG4 (UniProt O95429),inactive: -0.013,inactive: 0.03,inactive: -0.067,inactive: -0.025,inactive: 0.007
BCL7B (UniProt Q9BQE9),inactive: 0.146,inactive: 0.123,inactive: -0.017,inactive: -0.015,inactive: 0
BCKDHA (UniProt P12694),inactive: 0.113,inactive: -0.123,inactive: 0.091,inactive: -0.051,inactive: -0.028
BRF1 (UniProt Q92994),inactive: -0.018,inactive: -0.041,inactive: 0.06,inactive: -0.005,inactive: -0.126
BECN1 (UniProt Q14457),inactive: -0.034,inactive: -0.08,inactive: 0.022,inactive: -0.002,inactive: -0.014
BLOC1S5 (UniProt Q8TDH9),inactive: -0.047,inactive: 0.083,inactive: -0.02,inactive: -0.009,inactive: 0.034
BBS7 (UniProt Q8IWZ6),inactive: -0.006,inactive: -0.354,inactive: 0.133,inactive: -0.015,inactive: -0.007
BABAM1 (UniProt Q9NWV8),inactive: -0.037,inactive: -0.194,inactive: -0.025,inactive: -0.024,inactive: 0
BSDC1 (UniProt Q9NW68),inactive: -0.073,inactive: 0.13,inactive: -0.018,inactive: 0.024,inactive: -0.002
"BIRC6, A0A3B3IUB9",inactive: -0.142,inactive: 0.064,inactive: 0.007,inactive: -0.067,inactive: 0.048

Target,log2 fold change [1],log2 fold change (vorinostat),log2 fold change (silmitasertib),log2 fold change [2],log2 fold change (entospletinib)
BANF1 (UniProt O75531),inactive: 0.069,inactive: 0.036,inactive: -0.113,inactive: 0.067,inactive: -0.051
BCL2L1 (UniProt Q07817),inactive: -0.025,inactive: 0.121,inactive: 0.023,inactive: -0.026,inactive: -0.001
BAG6 isoform 3 (UniProt P46379),inactive: -0.037,inactive: 0.089,inactive: 0.036,inactive: 0.051,inactive: 0
BEND3 (UniProt Q5T5X7),inactive: 0.03,inactive: -0.179,inactive: 0.129,inactive: -0.076,inactive: 0.072
BRIX1 (UniProt Q8TDN6),inactive: -0.004,inactive: -0.006,inactive: 0.021,inactive: 0.014,inactive: 0.014
BROX (UniProt Q5VW32),inactive: 0.017,inactive: -0.024,inactive: 0.011,inactive: -0.009,inactive: 0.006
BCKDK (UniProt O14874),inactive: -0.01,inactive: 0.025,inactive: 0.052,active: -0.271,inactive: -0.053
BAG2 (UniProt O95816),inactive: 0.032,inactive: 0.042,inactive: 0.023,inactive: -0.023,inactive: 0.004
BCAS3 isoform 8 (UniProt Q9H6U6),inactive: 0.082,inactive: -0.144,inactive: 0.063,inactive: 0.047,inactive: 0.043
BRAF (UniProt P15056),inactive: -0.001,inactive: -0.339,inactive: 0.061,inactive: -0.008,inactive: 0.037
BLOC1S6 (UniProt Q9UL45),inactive: -0.022,active: -0.386,inactive: 0.004,inactive: 0.011,inactive: 0.046
BCKDHB (UniProt P21953),inactive: 0.055,active: -0.275,inactive: 0.076,inactive: 0.072,inactive: -0.123
BCL7C isoform 2 (UniProt Q8WUZ0),inactive: 0.009,inactive: 0.041,inactive: -0.002,inactive: -0.032,inactive: -0.043
BORCS5 (UniProt Q969J3),inactive: -0.061,inactive: 0.136,inactive: 0.008,inactive: 0.026,inactive: -0.115
BSG (UniProt P35613),inactive: 0.012,inactive: 0.079,inactive: -0.056,inactive: -0.047,inactive: -0.002
BAIAP2L1 (UniProt Q9UHR4),inactive: 0.008,inactive: 0.068,inactive: -0.038,inactive: -0.027,inactive: -0.001
BAZ1A (UniProt Q9NRL2),inactive: 0.143,inactive: -0.018,inactive: 0.249,inactive: -0.018,inactive: -0.09
"BCAP31, A0A2R8Y5M6",inactive: 0.029,–,–,–,inactive: -0.038
BAZ1B (UniProt Q9UIG0),inactive: 0.027,inactive: 0.02,inactive: -0.023,inactive: -0.125,inactive: -0.018
BPTF (UniProt Q12830),inactive: 0.037,inactive: -0.175,inactive: -0.037,inactive: -0.028,inactive: -0.033
BRD4 (UniProt O60885),inactive: 0.01,inactive: -0.115,inactive: -0.011,inactive: -0.02,inactive: -0.028
BPNT1 (UniProt A6NF51),inactive: 0.026,inactive: 0,inactive: 0.094,–,inactive: 0.135
BCL2L11 (UniProt O43521),inactive: -0.024,–,–,inactive: -0.024,–
BAG1 (UniProt Q99933),inactive: -0.003,inactive: 0.019,inactive: 0.003,inactive: 0.022,inactive: 0.025
BRIP1 (UniProt Q9BX63),inactive: -0.126,inactive: -0.18,inactive: 0.039,inactive: -0.051,inactive: -0.038
BNIP2 (UniProt J3KN59),inactive: 0.072,inactive: -0.114,inactive: 0.048,inactive: -0.041,inactive: -0.21
BID isoform 2 (UniProt P55957),inactive: -0.026,inactive: 0.13,inactive: -0.019,inactive: -0.011,inactive: -0.052

# 4 records drawn at random from the list so far:
Target,log2 fold change [1],log2 fold change (vorinostat),log2 fold change (silmitasertib),log2 fold change [2],log2 fold change (entospletinib)
BCKDK (UniProt O14874),inactive: -0.01,inactive: 0.025,inactive: 0.052,active: -0.271,inactive: -0.053
BEND3 (UniProt Q5T5X7),inactive: 0.03,inactive: -0.179,inactive: 0.129,inactive: -0.076,inactive: 0.072
BRIP1 (UniProt Q9BX63),inactive: -0.126,inactive: -0.18,inactive: 0.039,inactive: -0.051,inactive: -0.038
BANF1 (UniProt O75531),inactive: 0.069,inactive: 0.036,inactive: -0.113,inactive: 0.067,inactive: -0.051
